In publication PMC6858331:
No constants are given. Whether binding was seen depends on the method and setting. In cells and extracts the contact can be indirect. Some binding calls cover weakened binding; strength is not graded here.

Chains of the proteins cited; added tags and fusions are not shown.
UniProt P13640: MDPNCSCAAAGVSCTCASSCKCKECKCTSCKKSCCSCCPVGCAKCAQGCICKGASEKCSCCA

Columns and labels:
[1] = biological target: MT1G-flag (expressed in HepG2 cells) (human) (UniProt P13640); experiment: co-IP; endogenous assay: HepG2 cells transfected with MT1G-flag plasmid; lysates immunoprecipitated with anti-flag antibody, blotted with anti-p53 and anti-flag; 4 °C
[2] = biological target: MT1G-flag (expressed in 293T cells) (human) (UniProt P13640); experiment: co-IP; exogeneous assay: 293T cells transfected with MT1G-flag and p53-Myc plasmids; lysates immunoprecipitated with anti-flag antibody, blotted with anti-Myc and anti-flag; 4 °C

Substance | binding [1] | binding [2]
p53 (endogenous, HepG2 cells) (from UniProt P04637 1-393) | binds | –
p53-Myc (wild-type p53, expressed in 293T cells) (from UniProt P04637 1-393) | – | binds
